According to the supplement of paper PMC4683952:
Some of the results follow. The rule behind the calls is not given here. Single values are uncertain here, since repeats match poorly.

tested on: Lgr5 (MarsCy1-Lgr5-EGFP, U2OS); assay: cell-surface Lgr5 expression (SCi1 fluorescence, background-subtracted) relative to WT DMSO (fold of DMSO control); higher = more Lgr5 at the plasma membrane; conditions: U2OS MarsCy1-Lgr5-EGFP stable; treatment time: overnight; library: Kinase Gold; 20 µM
Procedure: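 U2OS cells stably expressing MarsCy1-Lgr5-EGFP in 384-well plates were incubated overnight with single-dose compounds. Cell-surface Lgr5 was stained with SCi1 and scanned at 700 nm on a LI-COR Odyssey. Intensity was background-subtracted (parental U2OS) and expressed relative to WT DMSO wells.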

Compound	cell-surface Lgr5 expression
O=C(O)c1cc(-c2ccccc2)nc2ccc(F)cc12	inactive: 0.929
COc1cccc(NC(=O)c2cc3cc(OC)ccc3oc2=O)c1	inactive: 0.949
O=c1oc2ccc3ccccc3c2cc1-c1nnc(-c2ccncc2)o1	inactive: 0.776
CC/C(=C\C(=O)c1cccnc1)Nc1cccc(O)c1	inactive: 0.7
COC(=O)c1c(N)sc(C(=O)Nc2cc(C)ccc2C)c1C	inactive: 0.885
O=C(Nc1nc2ccccc2o1)Nc1ccccc1Cl	inactive: 0.595
CCC(=O)NNC(=O)c1c(O)c2ccccc2n(C)c1=O	inactive: 0.722
Cc1cc(NC(=O)c2cccnc2)ccc1NC(=O)c1ccco1	inactive: 0.851
O=C(Nc1nc2ccccc2s1)c1c(O)c2ccccc2[nH]c1=O	inactive: 0.907
COc1ccc(OC)c(/C=C/C(=O)c2ccc3c(c2)OCCO3)c1	inactive: 0.535
O=C(/C=C\Nc1ccc2[nH]ncc2c1)c1ccco1	inactive: 0.659
O=C(Nc1ccc2c(c1)OCCO2)c1ccc(Cl)cc1Cl	inactive: 0.82
Cc1ccc(-c2nc3ccccc3o2)cc1NC(=O)CCCl	inactive: 0.741
Cc1ccc(Cc2ccc(C(=O)NNC(N)=S)o2)cc1	inactive: 0.958
CCC(=O)Nc1ccc(NC(=O)c2oc3ccccc3c2C)cc1	inactive: 0.694
CCn1cc(C(=O)O)c(=O)c2cc(F)c(N3CCN(C)CC3)cc21	inactive: 0.974
CC(=O)CSc1nc2c(c(=O)[nH]c(=O)n2C)n1Cc1ccccc1	inactive: 0.953
CCC(=O)NNC(=O)c1c(O)c2ccccc2n(CC)c1=O	inactive: 0.803
NNc1nc(NCc2ccccc2)nc(N2CCOCC2)n1	inactive: 0.583
N#Cc1c(-c2ccc3c(c2)OCO3)cc(-c2ccccc2)nc1N	inactive: 0.99

Compound	cell-surface Lgr5 expression
Cn1c(=O)c(C(=O)Nc2ccc(F)cc2)c(O)c2ccccc21	inactive: 0.948
O=C(NCc1ccc2c(c1)OCO2)C(=O)NCc1ccco1	inactive: 0.537
O=C(Nc1ccc2ncccc2c1)c1ccccc1Br	inactive: 0.818
Cc1ccc(NC(=O)c2cccs2)cc1NC(=O)c1ccccc1	inactive: 0.76
CC(=O)Nc1c(C(=O)O)[nH]c2ccc(F)cc12	inactive: 0.905
CC(=O)Nc1c(O)nc(SCc2ccccc2C#N)[nH]c1=O	inactive: 0.739
CCOC(=O)/C(=C\c1ccc([N+](=O)[O-])o1)NC(=O)c1ccccc1	inactive: 1.07
CC(=O)Nc1ccc(C(=O)NNC(=O)c2cccs2)cc1	inactive: 0.87
O=C(Nc1ccc(Cl)cc1Cl)c1cc2ccccc2oc1=O	inactive: 0.899
Cc1ccc(-n2c(SCC(N)=O)nnc2-c2ccncc2)cc1	inactive: 0.913
O=C(NCCN1CCNCC1)C(=O)NCc1ccccc1	inactive: 1.01
Nc1cccc(NC(=O)c2ccccn2)c1	inactive: 0.826
CC(=O)c1ccc(NC(=S)NC(=O)/C=C/c2ccco2)cc1	inactive: 0.714
COc1ccc2nc(C)cc(Nc3ccc(NC(C)=O)cc3)c2c1	inactive: 1.3
O=C(Nc1ccc(F)cc1)c1nc[nH]c1C(=O)O	inactive: 0.726
CC(=O)N/C(=C\c1ccccc1)C(=O)NCC1CCCO1 (stereo not given)	inactive: 0.868
O=C(CCCl)Nc1cc(-c2nc3ccccc3o2)ccc1Cl	inactive: 0.793
CCC1(C)COC(C)(CC(=O)NNC(=O)Nc2ccccc2)OC1 (stereo not given)	inactive: 0.666
Cc1cccc(C)c1NC(=O)COC(=O)c1nonc1N	inactive: 0.808
CC1(C)Oc2ccc3ccc(=O)oc3c2/C(=C/NNC(N)=S)C1=O	inactive: 0.231

A different layout for two compounds above.
Compound | cell-surface Lgr5 expression
COc1ccc2nc(C)cc(Nc3ccc(NC(C)=O)cc3)c2c1 | inactive: 1.3
Cc1cccc(C)c1NC(=O)COC(=O)c1nonc1N | inactive: 0.808
